Assay results from PubChem BioAssay AID651843 (National Center for Advancing Translational Sciences (NCATS), 2012).
Inconclusive results, whose numbers are uncertain, are shown. Potencies of inconclusive entries are doubtful fits and often do not repeat.

Experiment: qHTS Assay for Inhibitors of MBNL1-poly(CUG) RNA binding: Counterscreen HTRF assay; active = well fitted inhibition curve with a large enough effect; inconclusive = small, poorly fitted or top-dose-only effect; inactive = no such curve, though single readings can be large or run the other way
In short: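 A TR-FRET counterscreen measured His-Menin/biotin-MLL peptide binding, each added at 20 nM, in Tris pH 7.5 buffer. Final concentrations were compound up to 58 uM, Tb anti-His 0.055 ng/ul and streptavidin-XL665 5 nM, 60 min RT. The 665/545 nm ratio was normalized to controls, and IC50 came from a Hill fit.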

Question: With `O.O.O.O.O.O.O.O=S(=O)([O-])[O-].[Co+2]` as the compound, how does the Potency read?
Answer: Its Potency is inconclusive: 81.9 µM [inhibitor, single point].
